Laboratory results taken from publication doi:10.1101/702415 (bioRxiv, 2019).
Results are given in words; binding and its absence hold for the method and conditions named. Some binding calls cover weakened binding; strength is not graded here.

Biological target: Ups1 T64C/K140C mutant (S. cerevisiae) (UniProt Q05776)
Experiment: cross-linking

B1: Ups1 T64C/K140C mutant (protein, UniProt Q05776 1-175)
chain: MVLLHKSTHIFPTDFASVSRAFFNRYPNPYSPHVLSIDTISRNVDQEGNLRTTRLLKKSGKLPCWVKPFLRGITETWIIEVSVVNPANSTMKTYTRNLDHTGIMKVEEYTTYQFDSATSSTIADSRVKFSSGFNMGIKSCVEDWSRTKFDENVKKSRMGMAFVIQKLEEARNPQF
- binding: binds weakly
